In US7629458B2, “Preparation of levofloxacin and hemihydrate thereof” (Teva Pharmaceutical Industries Ltd., priority 2001, dated 2009):
Some results were stated once for a whole list of compounds, not compound by compound.

Test: Storage of crystal forms in a closed or open bottle at RT, conversion to hemihydrate by absorption of atmospheric water
Assay type: physicochemical
Conditions: closed bottle at RT
Text: Another embodiment of the invention is a method for preparing a levofloxacin hemihydrate comprising storing one or more forms selected from the group consisting of Forms A, B, C, F, G, and H for an amount of time sufficient for the one or more forms to convert to a levofloxacin hemihydrate by the absorption of atomospheric water. For example, Forms A, B, C, F, G and H were converted to hemihydrate after 7-29 days of storing in a closed bottle at RT. The conversion to hemihydrate was faster (about 24 h) when keeping the sample in an open bottle.

C[C@H]1COc2c(N3CCN(C)CC3)c(F)cc3c(=O)c(C(=O)O)cn1c23 [Form A, levofloxacin]
time of storing after which the form was converted to hemihydrate: 7 to 29 days
